Test results: patent publication US20060241108A1, “Substituted phenoxazines and acridones as inhibitors of AKT” (St. Jude Children's Research Hospital, priority 2005, published 2006)
Some results were stated once for a whole list of compounds, not compound by compound. At least one compound was matched to its structure with a doubt left.

test system: AKT; test: Inhibition of IGF-I stimulated AKT phosphorylation (Ser473) in Rh1 cells, Western blot; assay type: cell-based, human; conditions: acridones tested at 1, 5 or 10 μM, Rh1 cells in MN2E medium, 1 hour, IGF-I 10 ng/ml 10 minutes
Procedure: (§1) Cell lines and growth conditions. The human cell lines Rh1, Rh18, and Rh30 (ATCC Deposit # CRL 2061) have been described, e.g., by Hazelton et al. Cancer Res 1987;47:4501-4507 and Hosoi et al. Cancer Res. 1999;59:886-894. Rh1, Rh18 and Rh30 cells can each be grown in antibiotic free RPMI-1640 medium (available from BioWhittaker, Walkersville, Md.), supplemented with 10% fetal bovine serum (available from HyClone Laboratories, Logan, Utah) and 2 mM L-glutamine (available from BioWhittaker, Walkersville, Md.) at 37° C. in an atmosphere of 5% CO2. For serum free experiments, cells can be cultured in modified N2E (MN2E) medium (DMEM/F-12, 1:1 mixture) (Sigma, St. Louis, Mo.) supplemented with 1 μg/ml human holo transferrin, 30 nM sodium selenite, 20 nM progesterone, 100 μM putrescine, 30 nM vitamin E phosphate, and 50 μM ethanolamine. Cells in MN2E medium containing 5 μg/ml bovine fibronectin (available from Sigma, St. Louis, Mo.) are preferably plated, and allowed to attach overnight at 37° C. in a humidified, 5% CO2 atmosphere.
Cellular screening for inhibitors. Rh1, Rh18 and Rh30 cells can each be seeded at a density of 4×10^6/10-cm plate in serum-free medium for overnight attachment. The cells can then be exposed to 0.1% DMSO or to a test compound (for example, a phenoxazine or acridone compound) for one hour, then stimulated with Insulin-like growth factor-I (IGF-I) (10 ng/ml) for 10 minutes.
Western blot analysis. Cells are rapidly washed with ice-cold phosphate-buffered saline (PBS), placed on ice, and lysed in mammalian protein extraction reagent (M-PER; available from Pierce, Rockford, Ill.) containing one Complete™ mini protease inhibitor tablet (available from Boehringer Mannheim, Mannheim, Germany), 1 mM phenylmethylsulfonyl fluoride, 1 mM Na3VO4 and 1 mM NaF. Cellular debris is pelleted by centrifugation at 17,500×g for 10 minutes at 4° C. The protein concentration of the supernatants is measured by the bicinchoninic acid assay (e.g., using the BCA™ Protein Assay Kit, Pierce, Rockford, Ill., catalog number 23225 or 23227) using bovine serum albumin as the standard.
For the analysis of AKT, ERK-1/2, mTOR, p70S6 kinase, ribosomal protein S6 (rpS6 or S6), and glycogen synthase kinase 3 (GSK-3), equivalent amounts of protein can be separated on a 12% SDS-polyacrylamide gel (available from BioRad, Hercules, Calif.) by electrophoresis and subsequently transferred to a nitrocellulose membrane (also available from BioRad). After a 1 hour incubation in 1×TBS containing 0.05% Tween 20 and 5% blocking reagent (skim milk) (available from Upstate Biotechnology, Lake Placid, N.Y.) at room temperature, the wet nitrocellulose membranes are incubated with appropriate antibodies (available from Cell Signaling Technology, Beverly, Mass.): rabbit polyclonal antiserum specific for the phosphorylated Ser473 or Thr308 of AKT (dilution 1:1000); rabbit polyclonal antiserum specific for phosphorylated Thr202/Tyr204 of ERK-1/2 (dilution 1:1000); rabbit polyclonal antiserum specific for phosphorylated Ser2448 or Ser2481 of mTOR (dilution 1:1000); rabbit polyclonal antiserum specific for phosphorylated Thr389 of p70S6 kinase (dilution 1:4000); rabbit polyclonal antiserum specific for phosphorylated Ser235/236 of rpS6 (dilution 1:1000); or rabbit polyclonal antiserum specific for phosphorylated Ser21/9 of GSK-3α/β (dilution 1:1000). Horseradish peroxidase-conjugated goat anti-rabbit IgG antibody (dilution 1:10,000) can be used as the secondary antibody. Immunoreactive protein can be visualized using Renaissance chemiluminescence reagent (available from Life Science Products Inc., Boston, Mass.).
For these assays, Rh1 cells are seeded in serum-free medium for overnight attachment. The serum starved Rh1 cells are then exposed to 1-5 μM of a compound in Table I for 1 hour before stimulating with IGF-I (10 ng/ml) for 10 minutes. […]

| SMILES | concentration that effectively inhibits the phosphorylation of AKT (Ser473) [µM] |
| --- | --- |
| O=c1c2ccccc2n(CCCN2CCCC2)c2ccc(Br)cc12 [Compound 25, 10-(3′-N-Pyrrolidinopropyl)-2-bromoacridone] | < 5 |
| O=c1c2ccccc2n(CCCCN2CCCC2)c2ccc(Br)cc12 [Compound 21, 10-(4′-N-Pyrrolidinobutyl)-2-bromoacridone] | < 5 |
| CCN(CC)CCCn1c2ccccc2c(=O)c2cc(Br)ccc21 [Compound 26, 10-(3′-[N-Diethylamino]propyl)-2-bromoacridone] | < 5 |
| O=c1c2ccccc2n(CCCCCl)c2ccc(Cl)cc12 [Compound 13, 10-(4′-Chlorobutyl)-2-chloroacridone] | < 5 |
| CN1CCN(CCCn2c3ccccc3c(=O)c3cc(Cl)ccc32)CC1 [Compound 2, 10-[3′-N-(Methylpiperazino)propyl]-2-chloroacridone] | < 5 |
| O=c1c2ccccc2n(CCCCN2CCOCC2)c2ccc(Br)cc12 [Compound 22, 10-(4′-N-Morpholinobutyl)-2-bromoacridone] | < 5 |

test system: Rh1 cells; test: Cell growth inhibition, Rh1 cells; assay type: cell-based, human; conditions: six days, cell line not stated for this comparison (growth graphs are for Rh1)
Procedure: as §1, with “Cells in MN2E medium containing 5 μg/ml bovine fibronectin (available from Sigma, St. Louis, Mo.) are preferably plated, and allowed to attach overnight at 37° C. in a humidified, 5% CO2 atmosphere.” left out
Cell growth inhibition. […] Growth can be assessed after lysing cells, and counting nuclei. […]
The effect(s) of compounds, including phenoxazine compounds such as those listed in Table I, above, on cell growth can be evaluated in cell-based assays such as the exemplary assays described here. Rh1, Rh18 and/or Rh30 cells grown in complete medium can be exposed to graded concentrations of test compound (e.g., from 0.1 to 25 μM) for six days, at which time the cells can be lysed and their growth assessed by counting nuclei. […]

| SMILES | fold less inhibitory in cell growth assays than 10B and 15B [fold] |
| --- | --- |
| Clc1ccc2c(c1)N(CCCCN1CCOCC1)c1ccccc1O2 [Compound 12B, 10-(4′-N-morpholinobutyl)-2-chlorophenoxazine] | ≥ 10 |
